Measured values taken from PubChem BioAssay AID2685 (National Center for Advancing Translational Sciences (NCATS), 2010).
Values joined by “and” are separate entries in the source; they are usually repeats but may differ in a detail not shown here. Equal values may be shown once. About 2,100 (0.66%) of roughly 320,000 compounds were called active. Inconclusive results, whose numbers are uncertain, are shown with a selection of clear calls. Calls come from the whole dose curve; as a rule, active = well fitted inhibition curve with a large enough effect in the signal ratio, with a control signal flat (not every such curve was filed as active); inconclusive = small, poorly fitted or top-dose-only effect, or effect the other way, or a change in a side signal; inactive = flat fitted curve, though single readings scatter; the % refers to the signal ratio. Where the call is inconclusive, the potency comes from a doubtful curve fit.

Test: qHTS Assay for Lipid Storage Modulators in Drosophila S3 Cells
Conditions: BODIPY lipid droplet fluorescence, 18-24 h, cells fed with added oleic acid; lipid storage change, negative = inhibition: at 46.1 µM (top of the series) unless noted
Procedure, shortened: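 Drosophila S3 cells got compounds at several concentrations plus oleic acid (400 uM solution). Laser-scanning cytometry with 488 nm excitation read lipid droplets at 500-530 nm and cells at 575-640 nm. Percent activity was relative to 20 uM Triacsin C.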
% is set by controls: 0 for no effect and ±100 for the full control effect; potency is the fitted concentration of half-maximal effect.

Potency, inconclusive:
O=C(COC(=O)c1ccco1)Nc1ccc(Br)cc1 23.1 µM [falling, single point]
O=C(Nc1ccc(S(=O)(=O)N2CCCCC2)cc1)c1ccccc1F 29.1 µM [falling, single point]
NC(=O)c1ccc(N=C2C(=O)Nc3ccc([N+](=O)[O-])cc32)cc1 29.1 µM [falling, single point]
CC1CCN(CCNC(=O)C2CCCN(S(=O)(=O)c3cccc4nonc34)C2)CC1 (configuration not stated) 0.146 µM [falling, full curve, poor fit]
CC(C)(C)NC(=O)CC(c1ccccc1)c1ccccc1O (configuration not stated) 0.146 µM [falling, full curve, poor fit]
COc1ccccc1/C=N/n1c(C)nnc1-n1nc(C)cc1C 0.116 µM [falling, full curve, poor fit]
O=c1[nH]c(S)nc2sc3c(c12)CCCC3 3.66 µM [falling, partial curve]
CC(C)(O)C#Cc1ccc(CN2CCC(n3nccc3NC(=O)C3CC3)CC2)cc1 6.51 µM [activator, single point]
C=Cn1cc[n+](CC(=O)c2ccc(Br)cc2)c1 18.4 µM [falling, single point]
O=C(c1ccccc1)c1cc(-c2ccccn2)c(N2CCOCC2)s1 0.731 µM [activator, partial curve]
COCCn1c(Cc2ccccc2)nnc1SC(C)C(=O)NC1CC1 (configuration not stated) 0.517 µM [falling, full curve, poor fit]
CCc1ccc(-c2nc(CSCC(=O)N3CCN(c4ncccn4)CC3)c(C)o2)cc1 2.91 µM [falling, single point]
CC(=O)c1ccc(N2C(=NC(=O)C3CCCCC3)SC3CS(=O)(=O)CC32)cc1 (configuration not stated) 29.1 µM [falling, single point]
Cc1cc(C)n(C)c(=O)c1C#N 3.26 µM [falling, partial curve]
COc1ccc(C(=O)OCC(=O)Nc2c(C)n(C)n(-c3ccccc3)c2=O)cc1OC 29.1 µM [falling, single point]
COc1ccc([N+](=O)[O-])cc1C(=O)C(=O)c1ccccc1 18.4 µM [falling, single point]
CC(C(=O)NC1CCCC1)N(C(=O)c1snc(C(N)=O)c1N)c1ccc2c(c1)OCCO2 (configuration not stated) 18.4 µM [falling, single point]
CCc1cccc(NC(=O)C2CCCN(c3cnccn3)C2)c1 (configuration not stated) 6.51 µM [falling, single point]
Cc1nc2scc(-c3cccs3)c2c(=O)o1 8.2 µM [activator, partial curve]
CCc1noc(C)c1C(=O)N(CCC(C)C)c1c(N)n(Cc2ccccc2)c(=O)[nH]c1=O 6.51 µM [activator, single point]
Nc1c(C(=O)Nc2ccc3c(c2)OCCO3)nnn1Cc1ccccc1Cl 29.1 µM [falling, single point]
COc1ccccc1NS(=O)(=O)c1cc(NC(=O)CNC(=O)c2cc(C)cc(C)c2)ccc1C 4.61 µM [activator, single point]
Cc1ccc(CN2CCC(n3nccc3NC(=O)CCOc3ccccc3)CC2)cc1C 18.4 µM [falling, single point]
COCCNC(=S)Nc1ccc2nc(N3CCN(C)CC3)cc(C)c2c1 20.6 µM [activator, single point]
CC(C)(C)C(=O)O/N=C(\N)c1ccc(-c2csnn2)cc1 0.0046 µM [falling, full curve, poor fit]
COc1ccc(S(=O)(=O)NCC(=O)N(CC(=O)NCc2ccco2)Cc2ccc(F)cc2)cc1 29.1 µM [falling, single point]
CC1(C(=O)Nc2nnc(SCc3ccccc3)s2)Cc2ccccc2C(=O)O1 (configuration not stated) 6.51 µM [rising, partial curve, poor fit]
CCOCc1nnc(NC(=O)COc2ccc3c(c2)OCO3)s1 29.1 µM [activator, single point]
Cc1ccc(C(C)C)c(OCC(=O)NC(=S)Nc2ccccc2N2CCOCC2)c1 0.0291 µM [activator, full curve, poor fit]
c1cn(CCCNc2ncnc3nc[nH]c23)cn1 29.1 µM [falling, single point]
CC(=O)c1cccc(N(C(=O)c2ccco2)C(C(=O)NC2CCCC2)c2ccccc2F)c1 (configuration not stated) 0.58 µM [falling, single point]
CCOC(=O)c1ccc(N/C=C/C(=O)c2ccc(OC)c(OC)c2)cc1 29.1 µM [falling, single point]
CC(C)C(C)NC(=O)Cn1cnc2c(oc3ccccc32)c1=O (configuration not stated) 29.1 µM [falling, single point]

Lipid storage change, negative = inhibition, inactive:
Cc1cc(N2CCN(c3ccccc3)CC2)n2cc(-c3ccccc3)nc2n1
COc1ccc(-c2cc(C(=O)Nc3nc4ccccc4s3)c3ccccc3n2)cc1OC

Lipid storage change, negative = inhibition, inconclusive:
O=C(Nc1nc(-c2ccccc2)cs1)c1ccccc1NS(=O)(=O)c1ccc(F)cc1 -27.6%
COc1ccc(C)cc1S(=O)(=O)N(CC(=O)Nc1cccc([N+](=O)[O-])c1)c1ccc(C)c(C)c1 22.1%
CC(=O)Nc1ccc(S(=O)(=O)NC(C)C(=O)NCC(c2ccco2)N(C)C)cc1 (configuration not stated)
COC(=O)Cc1ccc(NC(=S)N2CCN(C(=O)C3CCCO3)CC2)cc1 (configuration not stated) 30.2%
COc1ccccc1C(=O)NCC(=O)OCC(=O)Nc1cccc(S(=O)(=O)N(C)C)c1 -23.7% [at 9.22 µM]
Cc1cccc(NC(=O)c2ccc(C(=O)c3ccccc3)o2)c1 125%
CCOC(=O)/C(N=Nc1sc(C(=O)OCC)c(C)c1C(=O)OCC)=C(\C)O 13%
COC(C(=O)Nc1ccccc1C(=O)N1CCOCC1)c1ccccc1 (configuration not stated) 6.98%
O=C(NC1CC1)c1cc2ccccc2o1 -100%
CCOC(=O)[C@@H]1[C@H]2COc3ccccc3[C@@H]2N2C(=O)N(c3cccc(Cl)c3)C(=O)[C@]12C -38.5%
CN(C)CCCOC(=O)c1cc2ccccc2o1 -17.5%
COc1cc2cnc(Cl)nc2cc1OC 32.1%
CCOC(=O)c1cc(C#N)c(C)nc1N(CC)CC -7.57%
Cc1ccc2[nH]c(C(=O)O)c(NC(=O)c3ccccc3[N+](=O)[O-])c2c1 35.6%
CCOc1ccccc1OCC(=O)Nc1c(C)n(C)n(-c2ccccc2)c1=O -9.42%
O=C(Cc1n[nH]c(=O)c2ccccc12)Nc1cc(C(F)(F)F)ccc1-n1cncn1 24%
CS(=O)(=O)c1ccc(Sc2nc3ccccc3[nH]2)c([N+](=O)[O-])c1 -30.5%
CN(Cc1cnn(C)c1)Cc1nc(Cc2ccccc2Cl)no1 26.5%
CCSc1nnc(NC(=O)c2nc3nc(C)cc(C)n3n2)s1 -75.4%
NS(=O)(=O)c1ccc(NC(=S)NC(=O)c2ccco2)cc1 7.9% and 2.03%
O=c1c2ccccc2ncn1Cc1ccccc1 4.42%
COC(=O)[C@H](CC(C)C)NS(=O)(=O)c1ccccc1 -22.5%
CC(=O)Nc1ccc(OCC(=O)NCc2ccccc2)cc1 10.8% [at 9.22 µM]
COc1ccc(OCCNC(=O)/C=C/c2ccc([N+](=O)[O-])cc2)cc1 6.52%
O=C(c1ccc(Cl)cc1[N+](=O)[O-])N1CCN(c2ccccn2)CC1 -22.5%
COc1ccc(N(C)S(=O)(=O)c2cccc(C(=O)N(C)Cc3ccc(C)o3)c2)cc1 56.2%
CCOC(=O)c1cc(C)sc1NC(=O)CCC(=O)O 38.7%
O=C(OCn1nnc2ccccc2c1=O)c1ccc(S(=O)(=O)N2CCOCC2)cc1 0.717%
CCOC(=O)C1=C(C)N(CCCC(=O)NCc2ccc3c(c2)OCO3)C(=O)NC1c1ccc(Br)cc1 (configuration not stated) -10.3%
CCN(CC)CCn1c2c(c(SCC(=O)Nc3cc(C)ccc3C)nc1=O)CCC2 17.2%
C=CCn1c(Cc2cccs2)nnc1SCC(=O)c1cccc(Br)c1 30.5%
O=C(NNC(=O)C(c1ccccc1)c1ccccc1)c1ccccn1 -22.4%
O=C(Nc1ccc(Br)cc1F)C1CCN(c2nnc(-n3cccc3)s2)CC1 6.17%
CC(OC(=O)c1ccc2c(=O)n3c(nc2c1)CCCCC3)C(=O)Nc1ccc(F)cc1Cl (configuration not stated) 23.7%
Cc1ccc(S(=O)(=O)NC(=O)Nc2cc(C(C)(C)C)on2)cc1 0.0101%
Cn1ccc(C(=O)OCC(=O)Nc2cccc(Cl)c2)n1 24%
Cc1ccc(C)c(CSc2ccc3nnc(-c4ccccn4)n3n2)c1 -0.0095%

Quoted at random: 3 entries already listed.
Lipid storage change, negative = inhibition, inconclusive:
C=CCn1c(Cc2cccs2)nnc1SCC(=O)c1cccc(Br)c1 30.5%
CCN(CC)CCn1c2c(c(SCC(=O)Nc3cc(C)ccc3C)nc1=O)CCC2 17.2%
Cc1ccc(S(=O)(=O)NC(=O)Nc2cc(C(C)(C)C)on2)cc1 0.0101%

Quoted from above for reference:
Lipid storage change, negative = inhibition, inconclusive:
O=C(OCn1nnc2ccccc2c1=O)c1ccc(S(=O)(=O)N2CCOCC2)cc1 0.717%
CCOC(=O)C1=C(C)N(CCCC(=O)NCc2ccc3c(c2)OCO3)C(=O)NC1c1ccc(Br)cc1 (configuration not stated) -10.3%
CCN(CC)CCn1c2c(c(SCC(=O)Nc3cc(C)ccc3C)nc1=O)CCC2 17.2%
C=CCn1c(Cc2cccs2)nnc1SCC(=O)c1cccc(Br)c1 30.5%
